# Results reported in the supplement of paper PMC12350171.
# Counter-ions that a name gives are not always drawn. The hits were mostly taken out for another list; the other results follow.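 How the source made its calls: active = AUC significantly below DMSO controls by Student t-fit with adjusted P under 0.01; inactive = not significantly reduced.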
# Tested on: Haemophilus parainfluenzae
# Test: growth AUC normalised to DMSO control (fraction of control); higher = less growth inhibition, active = hit call of the paper
# Settings: 20 µM
# How it was run: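 Pathogens passaged twice anaerobically were inoculated at a starting OD578 of 0.01 into pre-reduced mGAM plates with drug at 20 μM and 1% DMSO, sealed with breathable membranes. Haemophilus parainfluenzae medium was supplemented with hemin and NAD. OD578 was read hourly for 24 h, with three biological replicates. Growth-curve AUC was computed by the trapezoidal rule up to the exponential-to-stationary transition and normalised to DMSO controls on the same plate.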
smiles,measurement,value
"CN1[C@@H]2CC[C@H]1CC(OC(=O)C(O)c1ccccc1)C2 (mixture of isomers) [(R,S) Homatropine hydrobromide]",growth AUC normalised to DMSO control,inactive: 1.01
